Results are given in words; binding and its absence hold for the method and conditions named.
Assays:
TetR-KDM2A = target: T1, TetR-KDM2A (UniProt P59997); experiment: TetR tethering to a TetO array with ChIP-qPCR
T1 sequence: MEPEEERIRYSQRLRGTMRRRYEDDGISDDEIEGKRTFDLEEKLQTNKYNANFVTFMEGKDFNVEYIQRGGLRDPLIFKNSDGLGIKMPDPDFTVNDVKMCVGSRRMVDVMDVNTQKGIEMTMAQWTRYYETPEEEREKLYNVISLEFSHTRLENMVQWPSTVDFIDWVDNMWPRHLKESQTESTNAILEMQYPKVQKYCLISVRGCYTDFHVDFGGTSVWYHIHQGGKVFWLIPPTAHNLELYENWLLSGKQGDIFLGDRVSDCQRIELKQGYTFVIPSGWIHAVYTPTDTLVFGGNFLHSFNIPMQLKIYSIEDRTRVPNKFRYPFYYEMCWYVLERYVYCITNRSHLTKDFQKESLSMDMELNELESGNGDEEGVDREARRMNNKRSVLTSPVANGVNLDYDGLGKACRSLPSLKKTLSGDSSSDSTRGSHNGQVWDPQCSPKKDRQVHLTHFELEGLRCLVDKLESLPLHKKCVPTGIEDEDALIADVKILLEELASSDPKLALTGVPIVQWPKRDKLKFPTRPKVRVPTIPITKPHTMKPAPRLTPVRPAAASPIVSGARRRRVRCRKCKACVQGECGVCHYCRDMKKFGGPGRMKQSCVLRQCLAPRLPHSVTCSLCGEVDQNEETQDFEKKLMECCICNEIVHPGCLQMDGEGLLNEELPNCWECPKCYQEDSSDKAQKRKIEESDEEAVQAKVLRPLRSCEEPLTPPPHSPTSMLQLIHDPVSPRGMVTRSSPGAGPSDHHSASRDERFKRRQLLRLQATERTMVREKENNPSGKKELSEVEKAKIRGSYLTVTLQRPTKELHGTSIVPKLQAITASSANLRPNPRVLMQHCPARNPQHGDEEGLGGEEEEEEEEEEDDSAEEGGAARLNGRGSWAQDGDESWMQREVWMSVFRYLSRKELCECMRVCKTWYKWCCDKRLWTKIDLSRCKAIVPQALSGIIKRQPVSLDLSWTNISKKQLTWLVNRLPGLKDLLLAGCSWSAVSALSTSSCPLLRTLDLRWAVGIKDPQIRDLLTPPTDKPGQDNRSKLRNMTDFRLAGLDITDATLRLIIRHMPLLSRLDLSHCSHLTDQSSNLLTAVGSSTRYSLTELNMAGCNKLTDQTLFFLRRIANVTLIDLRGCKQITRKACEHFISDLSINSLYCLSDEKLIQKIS

TetR-KDM2B = target: T2, TetR-KDM2B (UniProt Q6P1G2); experiment: TetR tethering to a TetO array with ChIP-qPCR
T2 sequence: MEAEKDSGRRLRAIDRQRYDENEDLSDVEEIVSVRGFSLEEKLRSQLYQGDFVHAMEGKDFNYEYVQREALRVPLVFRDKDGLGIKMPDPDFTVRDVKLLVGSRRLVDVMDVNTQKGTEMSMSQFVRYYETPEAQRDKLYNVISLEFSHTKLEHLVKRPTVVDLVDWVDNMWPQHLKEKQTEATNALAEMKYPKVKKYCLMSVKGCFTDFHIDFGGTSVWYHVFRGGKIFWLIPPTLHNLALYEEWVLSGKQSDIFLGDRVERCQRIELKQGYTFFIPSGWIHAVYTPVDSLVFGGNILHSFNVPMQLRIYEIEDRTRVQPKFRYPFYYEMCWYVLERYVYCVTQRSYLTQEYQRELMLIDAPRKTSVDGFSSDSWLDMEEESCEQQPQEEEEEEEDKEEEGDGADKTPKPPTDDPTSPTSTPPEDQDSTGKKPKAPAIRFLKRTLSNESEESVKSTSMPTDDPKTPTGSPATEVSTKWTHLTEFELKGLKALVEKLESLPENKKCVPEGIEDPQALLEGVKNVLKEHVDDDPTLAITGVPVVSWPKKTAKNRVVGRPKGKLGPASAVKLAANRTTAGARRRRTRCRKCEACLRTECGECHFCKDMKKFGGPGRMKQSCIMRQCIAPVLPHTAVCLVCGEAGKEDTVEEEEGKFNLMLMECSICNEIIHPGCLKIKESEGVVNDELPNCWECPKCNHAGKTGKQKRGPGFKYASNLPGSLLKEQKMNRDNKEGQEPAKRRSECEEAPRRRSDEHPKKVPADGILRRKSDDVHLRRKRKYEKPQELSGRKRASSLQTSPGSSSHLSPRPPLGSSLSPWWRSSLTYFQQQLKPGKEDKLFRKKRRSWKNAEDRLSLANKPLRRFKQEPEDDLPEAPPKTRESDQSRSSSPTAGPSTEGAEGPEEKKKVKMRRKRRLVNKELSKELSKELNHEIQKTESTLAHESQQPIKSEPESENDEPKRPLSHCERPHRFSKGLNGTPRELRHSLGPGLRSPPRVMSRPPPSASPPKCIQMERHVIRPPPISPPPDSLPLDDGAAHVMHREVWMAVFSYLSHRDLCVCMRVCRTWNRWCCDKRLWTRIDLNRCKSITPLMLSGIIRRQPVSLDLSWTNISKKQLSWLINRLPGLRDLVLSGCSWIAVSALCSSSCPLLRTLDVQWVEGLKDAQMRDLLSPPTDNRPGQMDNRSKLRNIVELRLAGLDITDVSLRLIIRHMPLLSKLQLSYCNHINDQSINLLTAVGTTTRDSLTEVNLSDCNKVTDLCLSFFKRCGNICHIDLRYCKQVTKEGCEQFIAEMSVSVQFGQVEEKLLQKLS

B1: CDK8 (protein, UniProt Q8R3L8 1-464)
chain: MDYDFKVKLSSERERVEDLFEYEGCKVGRGTYGHVYKAKRKDGKDDKDYALKQIEGTGISMSACREIALLRELKHPNVISLLKVFLSHADRKVWLLFDYAEHDLWHIIKFHRASKANKKPVQLPRGMVKSLLYQILDGIHYLHANWVLHRDLKPANILVMGEGPERGRVKIADMGFARLFNSPLKPLADLDPVVVTFWYRAPELLLGARHYTKAIDIWAIGCIFAELLTSEPIFHCRQEDIKTSNPYHHDQLDRIFNVMGFPADKDWEDIKKMPEHSTLMKDFRRNTYTNCSLIKYMEKHKVKPDSKAFHLLQKLLTMDPIKRITSEQAMQDPYFLEDPLPTSDVFAGCQIPYPKREFLTEEEPDEKGDKKTQQQQQGNNHTNGTGHPGNQDSGHAQGPPLKKVRVVPPTTTSGGLIMTSDYQRSNPHAAYPNPGPSTSQPQSSMGYSATSQQPPQYSHQTHRY
binding (TetR-KDM2A): no binding | binding (TetR-KDM2B): no binding

Source: doi:10.1101/299552
